Source: PMC12339391

By UniProt entry, the sequences of proteins in these tests, tags left out. Where a name states a change or a piece, a line headed by the entry shows the natural chain unless it says otherwise.
UniProt Q5I0X4: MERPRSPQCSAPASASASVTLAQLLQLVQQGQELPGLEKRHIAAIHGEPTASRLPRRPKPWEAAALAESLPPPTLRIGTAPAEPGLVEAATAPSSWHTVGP
UniProt P09110: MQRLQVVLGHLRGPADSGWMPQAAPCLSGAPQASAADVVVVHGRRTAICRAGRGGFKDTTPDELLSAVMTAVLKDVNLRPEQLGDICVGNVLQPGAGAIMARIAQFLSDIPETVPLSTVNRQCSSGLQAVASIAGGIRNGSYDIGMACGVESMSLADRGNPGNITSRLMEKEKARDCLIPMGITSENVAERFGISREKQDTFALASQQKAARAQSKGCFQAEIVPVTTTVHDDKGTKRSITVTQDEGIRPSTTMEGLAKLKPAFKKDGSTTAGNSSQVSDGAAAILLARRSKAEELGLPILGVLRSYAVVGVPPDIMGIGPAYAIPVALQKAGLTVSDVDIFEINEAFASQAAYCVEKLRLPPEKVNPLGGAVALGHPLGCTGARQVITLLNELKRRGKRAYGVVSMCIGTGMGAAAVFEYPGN
UniProt O14832: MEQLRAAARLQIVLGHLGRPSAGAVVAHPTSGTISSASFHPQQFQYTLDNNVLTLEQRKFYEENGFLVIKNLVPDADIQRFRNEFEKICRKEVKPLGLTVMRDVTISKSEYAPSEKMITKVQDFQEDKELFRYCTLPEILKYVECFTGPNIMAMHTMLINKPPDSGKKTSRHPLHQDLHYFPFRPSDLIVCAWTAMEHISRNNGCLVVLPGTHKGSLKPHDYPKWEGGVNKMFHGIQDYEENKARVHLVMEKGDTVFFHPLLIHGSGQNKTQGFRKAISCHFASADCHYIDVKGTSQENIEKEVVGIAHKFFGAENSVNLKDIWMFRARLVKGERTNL
UniProt O00116: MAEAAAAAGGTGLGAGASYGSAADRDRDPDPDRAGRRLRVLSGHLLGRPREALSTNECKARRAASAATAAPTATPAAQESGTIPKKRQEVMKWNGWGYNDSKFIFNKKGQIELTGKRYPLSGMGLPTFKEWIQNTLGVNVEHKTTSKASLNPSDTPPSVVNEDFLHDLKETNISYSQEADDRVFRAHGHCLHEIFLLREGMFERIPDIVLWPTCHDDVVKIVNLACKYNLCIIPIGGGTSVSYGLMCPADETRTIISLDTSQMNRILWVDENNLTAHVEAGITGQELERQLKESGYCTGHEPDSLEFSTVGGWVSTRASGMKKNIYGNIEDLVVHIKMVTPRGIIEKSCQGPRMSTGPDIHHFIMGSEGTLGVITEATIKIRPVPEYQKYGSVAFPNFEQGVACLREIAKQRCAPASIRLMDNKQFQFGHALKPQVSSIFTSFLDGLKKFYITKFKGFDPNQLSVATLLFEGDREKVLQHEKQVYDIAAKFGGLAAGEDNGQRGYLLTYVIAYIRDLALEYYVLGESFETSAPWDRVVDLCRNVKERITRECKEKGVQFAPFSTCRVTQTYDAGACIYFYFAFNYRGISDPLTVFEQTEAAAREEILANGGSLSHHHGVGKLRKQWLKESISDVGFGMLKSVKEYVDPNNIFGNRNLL
UniProt Q92968: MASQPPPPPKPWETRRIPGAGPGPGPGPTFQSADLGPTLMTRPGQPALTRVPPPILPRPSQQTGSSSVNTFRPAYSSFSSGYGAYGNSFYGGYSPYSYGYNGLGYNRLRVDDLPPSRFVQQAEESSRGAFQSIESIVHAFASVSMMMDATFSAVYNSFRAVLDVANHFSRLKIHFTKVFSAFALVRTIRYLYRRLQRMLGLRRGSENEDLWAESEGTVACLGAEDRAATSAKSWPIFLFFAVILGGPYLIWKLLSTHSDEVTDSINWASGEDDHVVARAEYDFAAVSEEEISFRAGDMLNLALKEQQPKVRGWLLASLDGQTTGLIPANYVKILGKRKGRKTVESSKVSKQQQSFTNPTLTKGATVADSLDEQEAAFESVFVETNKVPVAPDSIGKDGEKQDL

Tests used:
Experiment in all cases: co-IP; anti-FLAG M2 magnetic beads; lysates of HCT116 or HEK293T cells stably expressing the FLAG-HA-tagged bait; 50 mM Tris-HCl pH 7.5, 150 mM NaCl, 0.5% NP-40 alternative, 1 mM DTT, 4 h at 4 °C; washes with 400 mM NaCl; immunoblot of endogenous prey
[1] = biological target: HsPEX39-FLAG-HA (C-terminally FLAG-HA-tagged human PEX39) (human) (UniProt Q5I0X4)
[2] = biological target: T1, PEX7-FLAG-HA (C-terminally FLAG-HA-tagged human PEX7) (human) (UniProt O00628)
T1 sequence: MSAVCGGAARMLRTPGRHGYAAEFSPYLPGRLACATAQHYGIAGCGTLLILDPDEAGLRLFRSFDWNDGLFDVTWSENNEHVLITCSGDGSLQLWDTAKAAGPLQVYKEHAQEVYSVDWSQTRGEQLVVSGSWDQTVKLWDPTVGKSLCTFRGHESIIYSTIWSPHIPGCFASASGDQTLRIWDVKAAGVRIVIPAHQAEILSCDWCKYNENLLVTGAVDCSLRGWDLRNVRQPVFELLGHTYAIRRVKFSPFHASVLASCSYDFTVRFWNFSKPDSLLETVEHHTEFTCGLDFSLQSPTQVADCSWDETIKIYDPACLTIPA

[3] = biological target: T2, PEX7(E77A)-FLAG-HA (human) (UniProt O00628)
T2 sequence: T1 sequence with E77A

[4] = biological target: ACAA1-FLAG-HA (C-terminally FLAG-HA-tagged human ACAA1) (human) (UniProt P09110)
[5] = biological target: PHYH-FLAG-HA (C-terminally FLAG-HA-tagged human PHYH) (human) (UniProt O14832)

binding [1]	binding [2]	binding [3]	binding [4]	binding [5]	Substance
binds	binds	–	–	–	endogenous ACAA1 (precursor form) (from UniProt P09110)
binds	binds	binds	–	–	endogenous AGPS (precursor form) (from UniProt O00116)
–	–	–	binds	–	endogenous HsPEX39 (C6ORF226) (from UniProt Q5I0X4 1-101)
–	–	–	binds	binds	endogenous HsPEX13 (from UniProt Q92968 1-403)

Positions count from the first letter of the chain named. These are yes or no findings as the source states them, for the method shown. Binding seen in cells or lysates may run through a third protein. Binding can be weak; no strength is given. For some assays here: Tags and fused reporters may be left off the sequences shown.
